This list was built around the results that the source calls inconclusive (neither active nor inactive); the mix of calls is not that of the screen. Potencies of inconclusive entries are doubtful fits and often do not repeat. Active and inactive are the calls of the source. The call rests on the fitted dose curve; in most records, active means well fitted cell-killing curve with a large enough effect; inconclusive means small, poorly fitted or top-dose-only effect, or effect the other way; inactive means no such curve, though single readings can be large or run the other way.
Assay: Cell viability assay in S16 Pmp22-HiBiT cells
Conditions: S16 Schwann Pmp22-HiBiT viability, CellTiter-Glo, 24 h; series mostly up to 27.9 µM
Description: Assay Provider: Jim Inglese Ph.D. National Center for Advancing Translational Science, National Institutes of Health, Rockville, MD CMT is a heterogeneous group of neurological disorders that affect approximately 1 in 2,500 people. In particular, the most common form of CMT, CMT1A is genetically linked to the duplication of the PMP22 gene which leads to Schwann cell overexpression, thus manifesting itself as a typical case of dose-sensitive diseases. To identify small molecule compounds that can mediate the expression of PMP22 we developed a phenotypic assay screening strategy by utilizing genome editing techniques to construct Schwann cell lines containing novel reporter technology to monitor the transcriptional or translational regulation of PMP22. For high sensitivity we use a bioluminescent reporter system embedded in the 3' UTR of the PMP22 gene (S16(c9) Pmp22-F2sN) to identify compounds that inhibit gene expression. […] We can further discriminate the effect of all transcriptionally active molecules on PMP22 translation or stability with an assay that incorporates a short NLuc peptide (HiBiT) at the C-terminus of expressed PMP22 (S16(f8) PMP22-HiBiT) allowing alpha complementation and luminescence detection of membrane-associated PMP22 protein. These assays were screened against the NCATS Sytravon Library Collection. Miniaturization of these assays to 1536-well plate format for quantitative high throughput screening (qHTS) yielded rich data sets immediately from the qHTS assay (S16(c9) Pmp22-F2sN), when compared with data from a cell viability assay (Cell TiterGlo) to identify compounds that decreased the output signals through cellular toxicity to streamline the selection process of actives for subsequent characterization using the HiBiT assay (S16(f8) PMP22-HiBiT).
Cell viability assay in S16 Pmp22-HiBiT cells PROTOCOL TABLE (format as described by Inglese J, Shamu CE and Guy RK. 2007) SEQUENCE No. (e.g., 1, 2, 3, etc.); PARAMETER (e.g., Cells, Incubation, Reagent, etc.); VALUE and DESCRIPTION. 1. Cells. Add 500-1,000 cells in 4 uL in growth media (DMEM High Glucose, No Phenol Red media + 10% heat-inactivated FBS + 1% Pen/Strep supplemented media) per well into Greiner 1536-well white/solid bottom high base, TC-treated plates. 2. Compounds. Library compounds and controls added at 23nL per well, transferred by Pin Tool. 3. Incubation. Incubate plates at 37C, 5% CO2, 95% RH for 24 h. 4. Reagent. Add 3uL CellTiter-Glo per well of Greiner 1536-well plates. 5. Incubation. Incubate plates at room temperature for 15 min., protect from light. 6. Detector. Luminescence measured using CCD-based camera (Viewlux). NOTES (numbers refer to Sequence numbers above; values are from representative experiments) 6. Luminescence Read: Clear filter; Exposure = 1 sec, Gain = High, Speed = Slow, Binning = 2X REFERENCES: 1. Inglese J, Shamu CE and Guy RK, Reporting data from high throughput screening of small molecule libraries, Nature Chemical Biology, 2007, 3(8): 438-441. doi.org/10.1038/nchembio0807-438 2. Yasgar A, Shinn P, Jadhav A, Auld DS, Michael S, Zheng W, Austin CP, Inglese J and Simeonov A, Compound Management for Quantitative High-Throughput Screening. J. Assoc. Lab. Auto., 2008, 13: 79-89. doi: 10.1016/j.jala.2007.12.004
With `CCc1ccc(NC(=O)Cn2c(=O)n(-c3ccc(OC)cc3)c(=O)c3ccc(C(=O)NCc4ccc(C)cc4)cc32)cc1` the Potency was inconclusive: 14.5 µM [cytotoxic, partial curve, poor fit]. With `CCN(CC)c1ccc(NC(=O)C2COc3ccc(OC)cc3C2)c(C)c1` (stereo not given) the Potency was inconclusive: 7.24 µM [rising, single point]. In the case of `CCC(C)NC(=O)C1CCN(C(=O)c2cc3sccc3n2Cc2ccc(Cl)cc2)CC1` (stereo not given), the Potency is reported as inconclusive: 20.4 µM [cytotoxic, single point]. With `COc1ccc(NC(=O)Cn2c(=O)n(CCC(=O)NCc3ccccc3OC)c(=O)c3ccccc32)cc1Cl` the Potency was inconclusive: 14.5 µM [cytotoxic, partial curve]. In the case of `Cn1c(=O)oc2cc(S(=O)(=O)N3CCCC(C(=O)N4CCN(c5ccc(Cl)cc5)CC4)C3)ccc21` (stereo not given), the Potency is reported as inconclusive: 10.2 µM [cytotoxic, partial curve]. In the case of `Cc1ccc(CS(=O)(=O)c2ncc(Cl)c(C(=O)Nc3nc4ccc(F)cc4s3)n2)cc1`, the Potency is reported as inconclusive: 20.4 µM [cytotoxic, single point]. With `COc1ccccc1Nc1nn2c(=O)c3ccc(C(=O)Nc4ccc(F)cc4)cc3nc2s1` the Potency was active: 4.57 µM. For `CCC(=O)N1CCc2cc(S(=O)(=O)CCC(=O)Nc3ccc(Cl)c(C(F)(F)F)c3)ccc21`, the Potency was “inactive”. In the case of `Cc1ccc(C(=O)Nc2ccc(S(=O)(=O)N3CCC(c4nc5ccccc5s4)CC3)cc2)cc1`, the Potency is reported as inconclusive: 1.45 µM [rising, partial curve, poor fit]. With `COc1ccc(Br)cc1CC1C(=O)Nc2ccccc21` (stereo not given) the Potency was “inactive”. With `CCOC(=O)c1cc2c(=O)n3ccccc3nc2n(Cc2ccco2)c1=NC(=O)c1cc(C)cc(C)c1` the Potency was “inactive”. For `Cc1ccc(NC(=O)Cn2c(=O)n(-c3ccc(C)cc3)c(=O)c3ccc(C(=O)NCc4ccccc4Cl)cc32)cc1`, the Potency was inconclusive: 8.13 µM [cytotoxic, partial curve]. With `COc1ccccc1NC(=O)Cn1c(=O)n(-c2cccc(Cl)c2)c(=O)c2sc3ccccc3c21` the Potency was inconclusive: 0.646 µM [rising, partial curve, poor fit]. In the case of `CCN(CC)CCCNC(=O)CSc1c2c(nc3cc(Cl)ccc13)CCCC2`, the Potency is reported as inconclusive: 0.0036 µM [rising, full curve, poor fit]. With `Cc1ccc(C)c(N2CCN(CCCNC(=O)Cn3c(-c4cccs4)cc4ccccc43)CC2)c1` the Potency was inconclusive: 22.9 µM [rising, single point]. For `Cc1cc(C)c(NC(=O)Cn2c(=O)n(Cc3ccco3)c(=O)c3ccc(C(=O)NC4CCCC4)cc32)c(C)c1`, the Potency was “inactive”. With `Cc1cccc(N2CCN(C(=O)C3CCCN(S(=O)(=O)c4ccc5c(c4)oc(=O)n5C)C3)CC2)c1C` (stereo not given) the Potency was inconclusive: 12.9 µM [cytotoxic, partial curve]. In the case of `O=C(CCS(=O)(=O)c1nc(-c2cccs2)cc(C(F)(F)F)n1)Nc1ccc(OC(F)(F)F)cc1`, the Potency is reported as inconclusive: 11.5 µM [rising, partial curve]. For `Cc1ccc(C)c(NC(=O)Cn2c(=O)n(Cc3ccc4c(c3)OCO4)c(=O)c3ccc(C(=O)NC4CCCCC4)cc32)c1`, the Potency was “inactive”. In the case of `COCCCNC(=O)c1ccc2c(c1)N=C(C)c1c(C)ccc(C)c1S2`, the Potency is reported as “inactive”. In the case of `COc1ccccc1Nc1c2c(nc3ccc(NC(=O)/C=C/c4cccc(OC)c4OC)cc13)CCCC2`, the Potency is reported as active: 16.2 µM. In the case of `CCc1ccc(OCC(=O)Nc2cc3oc4ccccc4c3cc2OC)cc1`, the Potency is reported as “inactive”. For `COc1ccc(Br)c2c1-c1nc(NC(=O)c3cccc(C)c3)sc1C2`, the Potency was inconclusive: 18.2 µM [cytotoxic, single point]. In the case of `CCC(=O)C1=C(c2cccc([N+](=O)[O-])c2)N(C(=O)CC)n2c(nnc2C2CCCCC2)S1`, the Potency is reported as “inactive”. With `CCC(Sc1nc2ccccc2c2nc(-c3ccccc3)nn12)C(=O)Nc1cccc(OC)c1` (stereo not given) the Potency was “inactive”. In the case of `CCOC(=O)c1c(NC(=O)c2nc(S(C)(=O)=O)ncc2Cl)sc(C(C)=O)c1C`, the Potency is reported as active: 6.45 µM. For `COc1ccccc1-c1cc(C(F)(F)F)nc(S(=O)(=O)CCCC(=O)Nc2ccccc2F)n1`, the Potency was inconclusive: 18.2 µM [cytotoxic, single point]. In the case of `Cc1ccc(C)c(NC(=O)Cn2c(=O)n(Cc3ccccc3)c(=O)c3oc4ccccc4c32)c1`, the Potency is reported as inconclusive: 1.02 µM [cytotoxic, full curve]. With `CCc1ccc(C(=O)c2cn(CC(=O)Nc3ccc4c(c3)OCO4)c3ccc(CC)cc3c2=O)cc1` the Potency was inconclusive: 14.5 µM [cytotoxic, partial curve, poor fit]. For `Cc1ccc(NC(=O)N2CCc3cc(S(=O)(=O)N4CCC(C)CC4)ccc32)cc1F`, the Potency was “inactive”. With `O=C(c1ccc(CS(=O)c2ccccc2Cl)o1)N1CCN(c2cccc(C(F)(F)F)c2)CC1` (stereo not given) the Potency was inconclusive: 5.75 µM [rising, single point]. With `Cc1ccc(CNC(=O)c2nc(S(=O)(=O)Cc3ccc(C)cc3)ncc2Cl)cc1` the Potency was “inactive”. In the case of `O=C(CCS(=O)(=O)c1nc(-c2cccs2)cc(C(F)(F)F)n1)Nc1ccc(F)c(Cl)c1`, the Potency is reported as inconclusive: 22.9 µM [cytotoxic, single point]. In the case of `CCCCOc1ccc(CN2C(=O)C(=O)c3cc(Br)cc(C)c32)cc1OC`, the Potency is reported as inconclusive: 8.13 µM [cytotoxic, single point]. With `Cc1c(Cl)cccc1NC(=O)c1oc2ccc(S(=O)(=O)N3CCC4(CC3)OCCO4)cc2c1C` the Potency was “inactive”. In the case of `CCOc1cc(CNc2ccc(O)cc2)cc(Br)c1OCc1ccccc1`, the Potency is reported as inconclusive: 22.9 µM [cytotoxic, partial curve, poor fit]. With `COc1ccc(OC)c(NC(=O)CSc2c3c(nc4ccccc24)CCCC3)c1` the Potency was active: 16.2 µM. With `COC(=O)c1c(-c2ccc(Cl)cc2)noc1N1CCN(c2cccc(C(F)(F)F)c2)CC1` the Potency was inconclusive: 12.9 µM [cytotoxic, partial curve]. For `CCc1nnc(NC(=O)c2nc(S(C)(=O)=O)ncc2Cl)s1`, the Potency was inconclusive: 22.9 µM [cytotoxic, single point]. For `Cc1cc(NC(=O)C2CCCN(S(=O)(=O)c3cccc4nonc34)C2)ccc1Br` (stereo not given), the Potency was “inactive”.

From PubChem BioAssay AID1508645 (National Center for Advancing Translational Sciences (NCATS), 2021)
